Experimental data taken from PMC12631106.
Results are given in words; binding and its absence hold for the method and conditions named. In cells and extracts the contact can be indirect. Some binding calls cover weakened binding; strength is not graded here. Blank lines part the entries; values can stand above or below the substance they belong to.

By UniProt entry, the sequences of proteins in these tests, tags left out.
UniProt P45974: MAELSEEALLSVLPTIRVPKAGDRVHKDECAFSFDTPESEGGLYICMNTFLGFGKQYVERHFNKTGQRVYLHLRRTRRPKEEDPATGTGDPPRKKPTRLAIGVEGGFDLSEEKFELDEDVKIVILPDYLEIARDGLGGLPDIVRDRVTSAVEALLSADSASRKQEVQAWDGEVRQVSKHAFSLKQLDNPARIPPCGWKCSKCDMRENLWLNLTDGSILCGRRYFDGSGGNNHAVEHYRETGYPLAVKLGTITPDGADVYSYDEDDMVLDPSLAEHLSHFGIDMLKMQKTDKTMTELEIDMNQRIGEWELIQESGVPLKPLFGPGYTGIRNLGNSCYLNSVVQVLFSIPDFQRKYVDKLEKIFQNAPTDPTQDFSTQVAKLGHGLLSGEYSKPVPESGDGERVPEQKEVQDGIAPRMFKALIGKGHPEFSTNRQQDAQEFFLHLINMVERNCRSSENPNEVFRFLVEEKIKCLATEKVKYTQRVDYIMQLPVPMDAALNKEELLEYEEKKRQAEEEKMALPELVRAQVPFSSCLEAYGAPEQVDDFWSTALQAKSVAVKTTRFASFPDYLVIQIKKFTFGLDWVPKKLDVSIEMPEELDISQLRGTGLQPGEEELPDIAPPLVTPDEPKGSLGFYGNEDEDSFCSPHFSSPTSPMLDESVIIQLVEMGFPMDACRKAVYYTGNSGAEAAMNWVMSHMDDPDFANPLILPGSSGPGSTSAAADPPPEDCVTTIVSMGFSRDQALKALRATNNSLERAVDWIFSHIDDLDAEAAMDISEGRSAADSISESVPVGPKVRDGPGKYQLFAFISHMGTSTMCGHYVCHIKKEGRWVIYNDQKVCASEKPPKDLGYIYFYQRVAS
UniProt P42227: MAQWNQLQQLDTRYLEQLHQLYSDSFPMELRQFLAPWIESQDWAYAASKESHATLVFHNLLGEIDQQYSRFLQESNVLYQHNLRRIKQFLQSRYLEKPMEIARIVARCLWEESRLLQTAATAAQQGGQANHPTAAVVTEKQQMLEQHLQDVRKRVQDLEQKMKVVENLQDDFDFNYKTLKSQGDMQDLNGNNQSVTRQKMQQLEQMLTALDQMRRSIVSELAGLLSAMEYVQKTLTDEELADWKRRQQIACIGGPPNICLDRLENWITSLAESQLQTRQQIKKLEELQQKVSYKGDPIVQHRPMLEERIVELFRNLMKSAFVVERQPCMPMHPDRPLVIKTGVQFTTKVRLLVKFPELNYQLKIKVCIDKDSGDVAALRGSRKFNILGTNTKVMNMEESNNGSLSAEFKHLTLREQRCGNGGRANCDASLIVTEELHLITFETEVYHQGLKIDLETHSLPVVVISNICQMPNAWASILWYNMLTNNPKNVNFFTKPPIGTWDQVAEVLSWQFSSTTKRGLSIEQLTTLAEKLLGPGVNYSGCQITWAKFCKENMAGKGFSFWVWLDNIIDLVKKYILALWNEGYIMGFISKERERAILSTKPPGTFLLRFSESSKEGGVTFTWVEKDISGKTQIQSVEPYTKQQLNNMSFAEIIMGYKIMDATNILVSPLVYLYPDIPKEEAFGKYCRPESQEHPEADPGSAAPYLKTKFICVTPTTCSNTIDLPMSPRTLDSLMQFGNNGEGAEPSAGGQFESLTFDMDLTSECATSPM
UniProt P56399: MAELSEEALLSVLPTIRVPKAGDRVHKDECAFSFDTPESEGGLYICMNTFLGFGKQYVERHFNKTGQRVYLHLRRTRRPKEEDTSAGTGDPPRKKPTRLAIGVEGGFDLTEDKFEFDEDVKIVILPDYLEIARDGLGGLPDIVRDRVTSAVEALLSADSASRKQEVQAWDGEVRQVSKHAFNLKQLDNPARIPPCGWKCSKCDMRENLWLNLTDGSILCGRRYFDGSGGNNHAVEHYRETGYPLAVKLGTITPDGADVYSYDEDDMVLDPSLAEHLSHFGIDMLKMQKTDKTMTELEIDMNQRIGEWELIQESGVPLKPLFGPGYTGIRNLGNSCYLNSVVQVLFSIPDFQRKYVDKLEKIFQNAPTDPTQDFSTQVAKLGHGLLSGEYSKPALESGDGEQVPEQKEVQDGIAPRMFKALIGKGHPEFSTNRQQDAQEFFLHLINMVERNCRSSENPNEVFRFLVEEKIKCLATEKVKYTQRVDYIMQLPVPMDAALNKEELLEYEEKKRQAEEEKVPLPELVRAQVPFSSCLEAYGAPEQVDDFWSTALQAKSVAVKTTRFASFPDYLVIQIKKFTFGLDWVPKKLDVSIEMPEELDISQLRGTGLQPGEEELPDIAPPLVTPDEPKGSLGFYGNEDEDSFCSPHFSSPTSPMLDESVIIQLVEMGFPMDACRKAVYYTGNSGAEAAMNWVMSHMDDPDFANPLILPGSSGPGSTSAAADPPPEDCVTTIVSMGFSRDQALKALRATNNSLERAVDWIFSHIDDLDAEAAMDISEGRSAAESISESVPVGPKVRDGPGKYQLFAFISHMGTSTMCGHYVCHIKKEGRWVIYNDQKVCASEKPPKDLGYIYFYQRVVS

How the values were obtained:
[1] = molecular target: signal transducer and activator of transcription 3 (STAT3) (human (endogenous in HCT116)) (UniProt P40763); experiment: co-IP; endogenous proteins in HCT116 lysate; primary antibody and protein A + G magnetic beads overnight at 4 °C, washed thrice with cold lysis buffer, western blotting; cells with or without α-hederin treatment
[2] = molecular target: Sequestosome 1 (p62) (human (endogenous in HCT116)) (UniProt Q13501); experiment: as above
[3] = molecular target: ubiquitin specific peptidase 5 (USP5) (human (endogenous in HCT116)) (UniProt P45974); experiment: as above
[4] = molecular target: signal transducer and activator of transcription 3 (STAT3), mouse colon tissue (mouse (endogenous in colon tissue of C57BL/6 mice)) (UniProt P42227); experiment: co-IP; endogenous proteins in colon tissue lysates of mice of the model (AOM/DSS) and α-hederin H groups; primary antibody and protein A + G magnetic beads overnight at 4 °C, western blotting

binding [1]: binds
Substance: ubiquitin specific peptidase 5 (USP5) (from UniProt P45974 1-858) (enzyme)

binding [1]: binds
Substance: Sequestosome 1 (p62) (from UniProt Q13501 1-440)

binding [2]: binds | binding [3]: binds
Substance: signal transducer and activator of transcription 3 (STAT3) (from UniProt P40763 1-770)

binding [4]: binds
Substance: ubiquitin specific peptidase 5 (USP5), mouse colon tissue (from UniProt P56399 1-858) (enzyme)
